Data reported in patent US20020177172A1, “RESTORATION OF PLATELET AGGREGATION BY ANTIBODY ADMINISTRATION AFTER GPIIB/IIIA ANTAGONIST TREATMENT” (priority 1996, published 2002).
Counter-ions that a name gives are not always drawn. Some of these results come from one statement about several compounds together.

Amino acid sequences for entries named in this document (tags omitted). Residues count along the entry.
UniProt P05106, 27-788: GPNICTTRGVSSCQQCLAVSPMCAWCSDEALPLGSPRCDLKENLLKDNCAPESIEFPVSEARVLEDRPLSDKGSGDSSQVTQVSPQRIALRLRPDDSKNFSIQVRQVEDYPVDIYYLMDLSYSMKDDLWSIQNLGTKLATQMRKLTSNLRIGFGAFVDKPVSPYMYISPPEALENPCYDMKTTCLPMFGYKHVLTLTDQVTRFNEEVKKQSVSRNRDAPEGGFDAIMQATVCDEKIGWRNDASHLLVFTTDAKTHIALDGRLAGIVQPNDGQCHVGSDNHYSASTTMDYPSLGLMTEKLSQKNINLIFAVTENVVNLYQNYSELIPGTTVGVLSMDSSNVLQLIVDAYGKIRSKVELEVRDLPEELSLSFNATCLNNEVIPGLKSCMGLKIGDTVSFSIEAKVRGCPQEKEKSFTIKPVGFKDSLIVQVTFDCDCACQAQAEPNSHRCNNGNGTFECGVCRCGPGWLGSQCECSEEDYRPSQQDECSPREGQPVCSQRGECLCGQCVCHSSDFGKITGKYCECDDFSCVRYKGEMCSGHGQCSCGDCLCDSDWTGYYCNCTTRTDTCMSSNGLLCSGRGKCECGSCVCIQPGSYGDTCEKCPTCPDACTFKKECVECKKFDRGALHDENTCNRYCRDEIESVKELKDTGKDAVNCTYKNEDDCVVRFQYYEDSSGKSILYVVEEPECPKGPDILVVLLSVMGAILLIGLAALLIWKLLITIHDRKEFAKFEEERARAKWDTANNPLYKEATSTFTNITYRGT
UniProt P08514, 32-887 limits assumed: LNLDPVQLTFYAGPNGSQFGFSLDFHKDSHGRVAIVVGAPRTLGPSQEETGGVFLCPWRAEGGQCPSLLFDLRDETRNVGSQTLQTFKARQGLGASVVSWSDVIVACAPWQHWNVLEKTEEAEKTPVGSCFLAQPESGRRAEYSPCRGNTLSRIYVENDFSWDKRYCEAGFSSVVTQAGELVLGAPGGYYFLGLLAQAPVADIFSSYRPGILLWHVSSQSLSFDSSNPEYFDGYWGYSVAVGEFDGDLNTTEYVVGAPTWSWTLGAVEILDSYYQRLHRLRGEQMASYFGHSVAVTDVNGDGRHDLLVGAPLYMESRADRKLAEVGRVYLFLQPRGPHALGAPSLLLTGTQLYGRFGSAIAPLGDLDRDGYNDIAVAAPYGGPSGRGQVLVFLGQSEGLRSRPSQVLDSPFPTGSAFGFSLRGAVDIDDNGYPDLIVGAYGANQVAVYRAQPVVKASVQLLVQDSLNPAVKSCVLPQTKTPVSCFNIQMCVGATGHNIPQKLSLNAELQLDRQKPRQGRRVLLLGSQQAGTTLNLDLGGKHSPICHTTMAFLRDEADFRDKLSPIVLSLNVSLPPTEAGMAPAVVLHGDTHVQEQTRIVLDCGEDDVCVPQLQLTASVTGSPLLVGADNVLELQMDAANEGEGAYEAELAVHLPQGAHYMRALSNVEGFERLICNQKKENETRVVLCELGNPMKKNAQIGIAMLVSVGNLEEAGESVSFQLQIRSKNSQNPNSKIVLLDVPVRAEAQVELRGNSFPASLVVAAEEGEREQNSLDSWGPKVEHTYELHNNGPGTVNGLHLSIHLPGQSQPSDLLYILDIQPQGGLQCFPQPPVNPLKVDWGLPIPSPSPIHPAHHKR
UniProt P08514, 891-1039 partner limits assumed: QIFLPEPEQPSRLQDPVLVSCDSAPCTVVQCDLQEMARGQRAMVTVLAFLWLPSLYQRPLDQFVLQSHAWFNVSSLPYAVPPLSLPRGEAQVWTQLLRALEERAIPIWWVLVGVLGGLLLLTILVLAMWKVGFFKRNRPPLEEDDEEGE

Target: T1, GPIIb/IIIa receptor (Homo sapiens, UniProt P05106+P08514)
T1 construct: Washed platelets, prepared as described above, were incubated with 50 nM of [^3H]-compound B; endogenous in cells; host or cells: washed human platelets from donor blood
Assay: GPIIb/IIIa antagonist off-rate from the receptor (filter binding assay, washed human platelets)
Details: class by off-rate and plasma half-life

## CC[C@H]1NC(=O)c2cccc(c2)CNC(=O)[C@H](CC(=O)O)NC(=O)CNC(=O)[C@H](CCCNC(=N)N)N(C)C1=O [DMP728, cyclic [D-2-aminobutyryl-N2-methyl-L-arginyl-glycyl-L-aspartyl-3-aminomethyl-benzoic acid] methanesulfonic acid salt]
  Classification by binding off-rate from the GPIIb/IIIa receptor: Classification: 1 (Class 1) 0.009/seconds (t1/2˜75 seconds) to 0.00012/seconds (t1/2˜6000 seconds), and short plasma half-life)
